Results: publication PMC10746786 (2023)
These are yes or no findings as the source states them, for the method shown. Binding seen in cells or lysates may run through a third protein. Here binding means that the protein was enriched with, or labelled near, the bait; the list need not be complete. For part of these data: Sequences can lack the tags named with a protein. Values belong to the molecule of their own block, whether it stands above or below them.

Sequences of proteins named here, by UniProt entry; tags and fusion partners are left off.
UniProt Q8N3C0: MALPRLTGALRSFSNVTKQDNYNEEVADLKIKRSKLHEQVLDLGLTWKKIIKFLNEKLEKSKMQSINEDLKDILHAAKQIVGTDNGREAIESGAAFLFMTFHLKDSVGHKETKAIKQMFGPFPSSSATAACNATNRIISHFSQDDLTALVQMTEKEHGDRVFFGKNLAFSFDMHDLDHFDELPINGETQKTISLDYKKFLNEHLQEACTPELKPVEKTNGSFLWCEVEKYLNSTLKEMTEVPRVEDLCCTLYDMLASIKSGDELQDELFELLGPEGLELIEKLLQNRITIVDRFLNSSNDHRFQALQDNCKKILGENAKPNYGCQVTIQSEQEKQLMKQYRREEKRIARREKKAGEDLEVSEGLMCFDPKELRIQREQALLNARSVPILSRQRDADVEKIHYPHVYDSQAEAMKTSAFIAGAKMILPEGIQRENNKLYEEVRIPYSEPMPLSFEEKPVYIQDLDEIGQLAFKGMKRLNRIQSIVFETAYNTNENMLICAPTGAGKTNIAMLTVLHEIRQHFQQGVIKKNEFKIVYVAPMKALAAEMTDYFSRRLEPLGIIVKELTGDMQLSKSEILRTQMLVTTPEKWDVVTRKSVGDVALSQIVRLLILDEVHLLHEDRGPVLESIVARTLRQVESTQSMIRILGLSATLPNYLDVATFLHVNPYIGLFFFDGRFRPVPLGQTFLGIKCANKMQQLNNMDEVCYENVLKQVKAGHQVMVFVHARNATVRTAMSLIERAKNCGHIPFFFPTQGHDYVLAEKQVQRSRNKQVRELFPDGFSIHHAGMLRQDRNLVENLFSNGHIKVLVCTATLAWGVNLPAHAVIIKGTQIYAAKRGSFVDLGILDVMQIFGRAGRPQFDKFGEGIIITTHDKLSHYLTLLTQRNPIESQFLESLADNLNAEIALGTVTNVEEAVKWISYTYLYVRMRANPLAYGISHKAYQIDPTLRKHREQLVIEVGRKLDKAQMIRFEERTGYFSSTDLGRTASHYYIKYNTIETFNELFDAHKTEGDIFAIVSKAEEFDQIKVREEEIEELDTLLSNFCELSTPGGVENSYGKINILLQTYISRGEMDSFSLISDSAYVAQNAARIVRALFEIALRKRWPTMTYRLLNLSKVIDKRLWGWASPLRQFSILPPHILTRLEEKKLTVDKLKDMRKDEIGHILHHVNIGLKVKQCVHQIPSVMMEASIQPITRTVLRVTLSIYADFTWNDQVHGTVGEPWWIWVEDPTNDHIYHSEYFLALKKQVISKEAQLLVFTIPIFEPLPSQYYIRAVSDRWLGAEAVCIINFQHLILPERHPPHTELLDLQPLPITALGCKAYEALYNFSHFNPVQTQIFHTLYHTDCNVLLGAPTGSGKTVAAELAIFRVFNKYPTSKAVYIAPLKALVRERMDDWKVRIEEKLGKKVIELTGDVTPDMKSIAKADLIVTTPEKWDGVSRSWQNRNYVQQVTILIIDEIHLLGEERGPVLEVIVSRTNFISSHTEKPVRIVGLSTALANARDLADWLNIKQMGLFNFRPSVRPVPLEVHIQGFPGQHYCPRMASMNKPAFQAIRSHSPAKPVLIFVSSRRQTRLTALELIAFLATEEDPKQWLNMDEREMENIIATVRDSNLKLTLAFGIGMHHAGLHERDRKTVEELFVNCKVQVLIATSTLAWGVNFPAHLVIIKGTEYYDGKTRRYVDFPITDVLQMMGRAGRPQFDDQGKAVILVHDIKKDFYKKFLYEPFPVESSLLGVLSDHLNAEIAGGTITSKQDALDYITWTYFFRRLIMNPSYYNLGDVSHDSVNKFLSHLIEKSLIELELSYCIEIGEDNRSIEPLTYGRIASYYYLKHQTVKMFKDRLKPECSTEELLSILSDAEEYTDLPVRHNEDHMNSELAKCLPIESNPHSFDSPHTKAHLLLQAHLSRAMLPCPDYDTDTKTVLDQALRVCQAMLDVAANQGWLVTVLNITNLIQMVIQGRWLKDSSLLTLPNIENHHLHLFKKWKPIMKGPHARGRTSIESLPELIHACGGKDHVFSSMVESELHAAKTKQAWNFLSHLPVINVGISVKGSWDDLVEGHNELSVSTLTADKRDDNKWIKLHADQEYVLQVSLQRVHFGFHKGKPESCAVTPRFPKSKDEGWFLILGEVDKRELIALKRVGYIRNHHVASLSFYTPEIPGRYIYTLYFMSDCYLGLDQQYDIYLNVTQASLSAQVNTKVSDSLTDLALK
UniProt O15372: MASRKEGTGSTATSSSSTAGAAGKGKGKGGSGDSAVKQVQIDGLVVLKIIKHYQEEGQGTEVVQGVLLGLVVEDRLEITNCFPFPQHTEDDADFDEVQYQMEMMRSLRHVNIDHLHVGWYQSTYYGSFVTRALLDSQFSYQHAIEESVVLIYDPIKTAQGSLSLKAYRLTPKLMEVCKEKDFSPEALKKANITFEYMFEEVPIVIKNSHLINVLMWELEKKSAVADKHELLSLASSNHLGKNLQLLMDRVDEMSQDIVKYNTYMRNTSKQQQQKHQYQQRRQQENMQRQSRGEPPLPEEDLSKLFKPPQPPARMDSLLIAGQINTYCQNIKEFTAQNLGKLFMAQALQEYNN
UniProt O75822: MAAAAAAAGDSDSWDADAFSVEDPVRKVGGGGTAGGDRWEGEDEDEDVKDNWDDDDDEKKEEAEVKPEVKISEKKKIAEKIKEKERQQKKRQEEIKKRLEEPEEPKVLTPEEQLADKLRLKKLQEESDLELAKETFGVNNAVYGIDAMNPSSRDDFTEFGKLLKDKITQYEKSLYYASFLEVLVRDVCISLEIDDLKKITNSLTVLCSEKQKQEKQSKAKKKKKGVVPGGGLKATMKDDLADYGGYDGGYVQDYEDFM
UniProt P60842: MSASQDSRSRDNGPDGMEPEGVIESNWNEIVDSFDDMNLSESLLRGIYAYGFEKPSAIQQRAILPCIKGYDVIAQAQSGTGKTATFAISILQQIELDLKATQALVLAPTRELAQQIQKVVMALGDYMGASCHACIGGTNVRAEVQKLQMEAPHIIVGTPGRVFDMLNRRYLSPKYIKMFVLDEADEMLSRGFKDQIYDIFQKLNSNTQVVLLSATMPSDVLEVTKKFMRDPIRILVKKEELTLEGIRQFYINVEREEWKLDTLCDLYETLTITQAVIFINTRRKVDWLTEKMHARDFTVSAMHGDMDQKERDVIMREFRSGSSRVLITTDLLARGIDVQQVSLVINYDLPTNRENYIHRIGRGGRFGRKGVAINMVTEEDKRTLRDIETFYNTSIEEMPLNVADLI
UniProt Q14240: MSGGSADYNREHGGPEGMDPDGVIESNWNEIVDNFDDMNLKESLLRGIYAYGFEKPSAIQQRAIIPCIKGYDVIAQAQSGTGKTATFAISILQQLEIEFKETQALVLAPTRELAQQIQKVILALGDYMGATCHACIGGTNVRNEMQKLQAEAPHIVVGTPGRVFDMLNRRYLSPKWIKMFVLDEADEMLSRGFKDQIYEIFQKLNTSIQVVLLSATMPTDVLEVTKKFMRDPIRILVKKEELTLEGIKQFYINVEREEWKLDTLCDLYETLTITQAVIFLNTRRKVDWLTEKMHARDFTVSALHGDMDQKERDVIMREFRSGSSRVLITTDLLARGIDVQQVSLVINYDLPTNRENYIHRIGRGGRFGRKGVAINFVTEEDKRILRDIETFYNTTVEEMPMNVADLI
UniProt Q9Y520: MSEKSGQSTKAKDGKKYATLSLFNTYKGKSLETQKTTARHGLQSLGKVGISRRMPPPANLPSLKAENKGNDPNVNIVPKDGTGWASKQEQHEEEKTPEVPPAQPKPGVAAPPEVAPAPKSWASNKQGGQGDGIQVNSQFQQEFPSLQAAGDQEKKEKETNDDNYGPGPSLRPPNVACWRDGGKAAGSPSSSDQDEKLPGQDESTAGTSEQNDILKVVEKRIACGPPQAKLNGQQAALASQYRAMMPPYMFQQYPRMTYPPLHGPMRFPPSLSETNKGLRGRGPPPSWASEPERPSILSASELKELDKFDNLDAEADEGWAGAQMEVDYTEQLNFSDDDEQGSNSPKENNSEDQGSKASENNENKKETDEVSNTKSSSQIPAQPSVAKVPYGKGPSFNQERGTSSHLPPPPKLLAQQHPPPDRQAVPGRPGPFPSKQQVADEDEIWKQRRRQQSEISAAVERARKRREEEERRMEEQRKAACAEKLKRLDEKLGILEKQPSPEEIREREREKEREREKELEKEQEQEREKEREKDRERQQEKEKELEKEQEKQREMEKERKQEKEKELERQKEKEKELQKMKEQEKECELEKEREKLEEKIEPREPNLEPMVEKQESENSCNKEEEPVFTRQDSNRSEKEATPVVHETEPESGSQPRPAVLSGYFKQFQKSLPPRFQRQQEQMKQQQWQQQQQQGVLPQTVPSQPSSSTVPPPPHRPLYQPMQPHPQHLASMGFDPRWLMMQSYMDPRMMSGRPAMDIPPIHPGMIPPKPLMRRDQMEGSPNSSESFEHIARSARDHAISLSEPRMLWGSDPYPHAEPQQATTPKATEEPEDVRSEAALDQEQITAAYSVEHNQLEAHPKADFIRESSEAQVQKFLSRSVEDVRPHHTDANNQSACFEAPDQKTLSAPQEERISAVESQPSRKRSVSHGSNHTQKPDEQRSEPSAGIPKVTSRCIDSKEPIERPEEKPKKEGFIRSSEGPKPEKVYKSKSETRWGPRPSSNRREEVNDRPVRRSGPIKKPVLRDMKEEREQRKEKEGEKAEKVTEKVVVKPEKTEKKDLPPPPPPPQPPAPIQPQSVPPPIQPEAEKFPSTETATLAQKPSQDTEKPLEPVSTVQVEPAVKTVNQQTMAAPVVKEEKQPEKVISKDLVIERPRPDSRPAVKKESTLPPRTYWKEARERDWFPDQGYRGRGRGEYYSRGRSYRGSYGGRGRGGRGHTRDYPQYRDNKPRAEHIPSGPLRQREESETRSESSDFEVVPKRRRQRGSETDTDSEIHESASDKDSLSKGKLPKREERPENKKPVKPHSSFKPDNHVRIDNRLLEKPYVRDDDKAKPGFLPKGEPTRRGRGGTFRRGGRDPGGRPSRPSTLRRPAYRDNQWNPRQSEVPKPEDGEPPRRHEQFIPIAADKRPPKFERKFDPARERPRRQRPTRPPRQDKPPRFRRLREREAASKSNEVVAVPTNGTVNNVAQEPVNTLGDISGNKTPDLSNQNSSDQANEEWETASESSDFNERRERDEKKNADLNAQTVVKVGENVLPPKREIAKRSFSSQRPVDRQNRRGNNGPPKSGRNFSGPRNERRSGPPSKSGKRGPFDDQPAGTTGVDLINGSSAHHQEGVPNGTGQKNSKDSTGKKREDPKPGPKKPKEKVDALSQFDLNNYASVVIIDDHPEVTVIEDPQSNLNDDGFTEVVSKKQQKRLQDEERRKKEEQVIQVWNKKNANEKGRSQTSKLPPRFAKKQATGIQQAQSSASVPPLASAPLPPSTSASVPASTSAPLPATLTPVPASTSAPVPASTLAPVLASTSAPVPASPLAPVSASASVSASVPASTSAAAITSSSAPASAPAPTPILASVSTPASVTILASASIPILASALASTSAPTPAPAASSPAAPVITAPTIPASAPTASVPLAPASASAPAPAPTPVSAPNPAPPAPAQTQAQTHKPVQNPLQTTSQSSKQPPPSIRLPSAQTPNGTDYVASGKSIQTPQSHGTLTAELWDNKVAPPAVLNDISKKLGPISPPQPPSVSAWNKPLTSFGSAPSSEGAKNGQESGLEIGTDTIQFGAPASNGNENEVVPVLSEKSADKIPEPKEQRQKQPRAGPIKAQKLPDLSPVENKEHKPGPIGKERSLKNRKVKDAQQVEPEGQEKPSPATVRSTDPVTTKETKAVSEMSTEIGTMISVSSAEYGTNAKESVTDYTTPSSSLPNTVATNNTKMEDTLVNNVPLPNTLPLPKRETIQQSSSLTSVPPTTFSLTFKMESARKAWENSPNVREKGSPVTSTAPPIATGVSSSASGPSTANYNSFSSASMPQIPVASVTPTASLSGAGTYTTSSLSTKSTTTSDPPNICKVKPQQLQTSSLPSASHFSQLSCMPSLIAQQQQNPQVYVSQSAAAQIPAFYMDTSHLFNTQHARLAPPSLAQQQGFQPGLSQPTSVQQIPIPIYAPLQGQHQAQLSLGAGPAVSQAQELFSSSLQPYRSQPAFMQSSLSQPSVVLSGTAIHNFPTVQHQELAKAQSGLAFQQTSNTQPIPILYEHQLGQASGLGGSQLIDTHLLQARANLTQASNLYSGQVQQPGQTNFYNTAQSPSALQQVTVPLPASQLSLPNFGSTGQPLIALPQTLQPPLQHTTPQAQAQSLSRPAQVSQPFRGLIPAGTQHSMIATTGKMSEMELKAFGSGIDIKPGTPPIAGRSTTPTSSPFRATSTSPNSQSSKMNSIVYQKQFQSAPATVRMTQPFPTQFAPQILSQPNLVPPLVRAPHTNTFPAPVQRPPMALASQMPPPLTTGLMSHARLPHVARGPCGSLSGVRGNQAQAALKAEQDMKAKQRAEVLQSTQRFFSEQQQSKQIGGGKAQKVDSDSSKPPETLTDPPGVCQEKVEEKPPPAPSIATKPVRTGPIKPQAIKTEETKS

Experiments:
[1] = target: FLAG-tagged EIF4G2 WT (human) (UniProt P78344); experiment: affinity purification with mass spectrometry; FLAG-EIF4G2 WT or mutant transfected into HEK293T; 5 mg lysate in B-buffer (20 mM Hepes-KOH pH 7.6, 100 mM KCl, 0.5 mM EDTA, 0.4% NP-40, 20% glycerol) on FLAG beads, 4°C, 2 h; no RNase; control IP FLAG-mCherry; two separate experiments (WT with four or with two mutants); mutant against WT after correction for EIF4G2 levels in the IP
[2] = target: T1, FLAG-tagged EIF4G2 WT (human), P78344; experiment: as above; settings: remark: other sources report otherwise
T1 chain: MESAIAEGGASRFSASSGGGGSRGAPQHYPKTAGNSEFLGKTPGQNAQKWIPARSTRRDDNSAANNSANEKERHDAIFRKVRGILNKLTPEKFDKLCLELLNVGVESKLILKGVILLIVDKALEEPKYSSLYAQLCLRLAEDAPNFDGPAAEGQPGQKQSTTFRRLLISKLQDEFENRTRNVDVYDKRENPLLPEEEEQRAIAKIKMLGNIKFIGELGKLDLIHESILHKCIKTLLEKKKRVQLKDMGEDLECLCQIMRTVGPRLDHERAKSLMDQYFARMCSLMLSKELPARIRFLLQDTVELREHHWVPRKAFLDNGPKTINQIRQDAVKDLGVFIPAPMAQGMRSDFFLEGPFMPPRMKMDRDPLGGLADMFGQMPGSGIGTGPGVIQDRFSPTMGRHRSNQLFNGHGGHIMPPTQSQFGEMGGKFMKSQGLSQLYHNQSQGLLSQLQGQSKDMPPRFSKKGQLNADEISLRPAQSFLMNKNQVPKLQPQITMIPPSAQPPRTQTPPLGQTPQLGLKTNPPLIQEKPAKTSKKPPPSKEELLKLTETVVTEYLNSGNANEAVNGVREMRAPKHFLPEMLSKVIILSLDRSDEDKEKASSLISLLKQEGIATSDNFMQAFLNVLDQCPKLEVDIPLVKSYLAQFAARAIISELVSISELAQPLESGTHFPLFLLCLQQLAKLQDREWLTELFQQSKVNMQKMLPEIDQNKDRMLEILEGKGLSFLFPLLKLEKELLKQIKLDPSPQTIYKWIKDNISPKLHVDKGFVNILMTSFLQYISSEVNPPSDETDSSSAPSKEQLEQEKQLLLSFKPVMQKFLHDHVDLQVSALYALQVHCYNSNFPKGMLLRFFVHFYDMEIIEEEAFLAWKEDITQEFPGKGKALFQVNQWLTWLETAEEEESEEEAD

binding [1]: binds
Molecule: ASCC3 (from UniProt Q8N3C0 1-2202)

binding [1]: binds
Molecule: EIF2S2 (from UniProt P20042 1-333)

binding [1]: binds
Molecule: EIF3G (from UniProt O75821 1-320)

binding [1]: binds
Molecule: EIF3H (from UniProt O15372 1-352)

binding [1]: binds
Molecule: EIF3J (from UniProt O75822 1-258)

binding [1]: binds
Molecule: EIF4A1 (from UniProt P60842 1-406)

binding [1]: binds
Molecule: EIF4A2 (from UniProt Q14240 1-407)

binding [1]: binds
Molecule: PRRC2C (from UniProt Q9Y520 1-2896)

binding [1]: binds
Molecule: SMG6 (from UniProt Q86US8 1-1419)

binding [1]: binds
B1: ASCC2 (protein, UniProt Q9H1I8 1-757)
chain: MPALPLDQLQITHKDPKTGKLRTSPALHPEQKADRYFVLYKPPPKDNIPALVEEYLERATFVANDLDWLLALPHDKFWCQVIFDETLQKCLDSYLRYVPRKFDEGVASAPEVVDMQKRLHRSVFLTFLRMSTHKESKDHFISPSAFGEILYNNFLFDIPKILDLCVLFGKGNSPLLQKMIGNIFTQQPSYYSDLDETLPTILQVFSNILQHCGLQGDGANTTPQKLEERGRLTPSDMPLLELKDIVLYLCDTCTTLWAFLDIFPLACQTFQKHDFCYRLASFYEAAIPEMESAIKKRRLEDSKLLGDLWQRLSHSRKKLMEIFHIILNQICLLPILESSCDNIQGFIEEFLQIFSSLLQEKRFLRDYDALFPVAEDISLLQQASSVLDETRTAYILQAVESAWEGVDRRKATDAKDPSVIEEPNGEPNGVTVTAEAVSQASSHPENSEEEECMGAAAAVGPAMCGVELDSLISQVKDLLPDLGEGFILACLEYYHYDPEQVINNILEERLAPTLSQLDRNLDREMKPDPTPLLTSRHNVFQNDEFDVFSRDSVDLSRVHKGKSTRKEENTRSLLNDKRAVAAQRQRYEQYSVVVEEVPLQPGESLPYHSVYYEDEYDDTYDGNQVGANDADSDDELISRRPFTIPQVLRTKVPREGQEEDDDDEEDDADEEAPKPDHFVQDPAVLREKAEARRMAFLAKKGYRHDSSTAVAGSPRGHGQSRETTQERRKKEANKATRANHNRRTMADRKRSKGMIPS

binding [2]: binds
B2: PDCD4, Q53EL6 1-469 (protein)
chain: MDVENEQILNVNPADPDNLSDSLFSGDEENAGTEEIKNEINGNWISASSINEARINAKAKRRLRKNSSRDSGRGDSVSDSGSDALRSGLTVPTSPKGRLLDRRSRSGKGRGLPKKGGAGGKGVWGTPGQVYDVEEVDVKDPNYDDDQENCVYETVVLPLDERAFEKTLTPIIQEYFEHGDTNEVAEMLRDLNLGEMKSGVPVLAVSLALEGKASHREMTSKLLSDLCGTVMSTTDVEKSFDKLLKDLPELALDTPRAPQLVGQFIARAVGDGILCNTYIDSYKGTVDCVQARAALDKATVLLSMSKGGKRKDSVWGSGGGQQSVNHLVKEIDMLLKEYLLSGDISEAEHCLKELEVPHFHHELVYEAIIMVLESTGESTFKMILDLLKSLWKSSTITVDQMKRGYERIYNEIPDINLDVPHSYSVLERFVEECFQAGIISKQLRDLCPSRGRKRFVSEGDGGRLKPESY

binding [1]: binds
B3: TSR1 (protein, UniProt Q2NL82 1-804)
chain: MAAHRPGPLKQQNKAHKGGRHRGRGSAQRDGKGRLALKTLSKKVRKELSRVDQRHRASQLRKQKKEAVLAEKRQLGGKDGPPHQVLVVPLHSRISLPEAMQLLQDRDTGTVHLNELGNTQNFMLLCPRLKHRWFFTSARPGDLHVVLDMAKVADTILFLLDPLEGWDSTGDYCLSCLFAQGLPTYTLAVQGISGLPLKKQIDTRKKLSKAVEKRFPHDKLLLLDTQQEAGMLLRQLANQKQQHLAFRDRRAYLFAHAVDFVPSEENNLVGTLKISGYVRGQTLNVNRLLHIVGYGDFQMKQIDAPGDPFPLNPRGIKPQKDPDMAMEICATDAVDDMEEGLKVLMKADPGRQESLQAEVIPDPMEGEQTWPTEEELSEAKDFLKESSKVVKKVPKGTSSYQAEWILDGGSQSGGEGDEYEYDDMEHEDFMEEESQDESSEEEEEYETMTIGESVHDDLYDKKVDEEAEAKMLEKYKQERLEEMFPDEVDTPRDVAARIRFQKYRGLKSFRTSPWDPKENLPQDYARIFQFQNFTNTRKSIFKEVEEKEVEGAEVGWYVTLHVSEVPVSVVECFRQGTPLIAFSLLPHEQKMSVLNMVVRRDPGNTEPVKAKEELIFHCGFRRFRASPLFSQHTAADKHKLQRFLTADMALVATVYAPITFPPASVLLFKQKSNGMHSLIATGHLMSVDPDRMVIKRVVLSGHPFKIFTKMAVVRYMFFNREDVLWFKPVELRTKWGRRGHIKEPLGTHGHMKCSFDGKLKSQDTVLMNLYKRVFPKWTYDPYVPEPVPWLKSEISSTVPQGGME
